Results are given in words; binding and its absence hold for the method and conditions named. A result given as binding can be weak or reduced; the word gives no strength. For some assays here: In cells and extracts the contact can be indirect.
Legend:
[1] = biological target: PP2A-C (the catalytic subunit of PP2A) (mouse, H22 cells) (mouse (endogenous in H22)) (UniProt P63330); experiment: co-IP; endogenous proteins in lysates of tumor tissues (Huh-7 xenografts in nude mice, H22 transplanted tumors in Kunming mice; RIPA buffer), protein G sepharose pre-absorbed with the indicated primary antibody, 4°C, 2 h, immunoblotting; mice treated with isolie or saline; which partner was precipitated is not told
[2] = biological target: PP2A-C (the catalytic subunit of PP2A) (human (endogenous in HepG2 and Huh-7)) (UniProt P67775); experiment: as above
[3] = biological target: PP2A-C (the catalytic subunit of PP2A) (human (endogenous in HepG2 and Huh-7)) (UniProt P67775); experiment: co-IP; endogenous proteins in lysates of cultured HCC cells (RIPA buffer), protein G sepharose pre-absorbed with the indicated primary antibody, 4°C, 2 h, immunoblotting; cells treated with isolie for 24 h or transfected with I2PP2A siRNA; which partner was precipitated is not told
[4] = biological target: PP2A-C (the catalytic subunit of PP2A) (mouse, H22 cells) (mouse (endogenous in H22)) (UniProt P63330); experiment: as above
[5] = biological target: Recombinant human I2PP2A protein with 6 × his tag (human) (UniProt Q01105); experiment: pull-down; 2 μg 6 × his-tagged I2PP2A bound to Ni-NTA agarose, 1 μg PP2A-C in 1 mL binding buffer (20 mM Tris-HCl pH 8.0, 1 mM EDTA, 150 mM NaCl, 10% glycerol, 0.1% Nonidet P-40), with different concentrations of isolie, 4°C, 3 h; immunoblotting; both purified

Amino acid sequences for entries named in this document (tags omitted). A change or cut given only in a name is not applied to a line headed by its entry.
UniProt P63330: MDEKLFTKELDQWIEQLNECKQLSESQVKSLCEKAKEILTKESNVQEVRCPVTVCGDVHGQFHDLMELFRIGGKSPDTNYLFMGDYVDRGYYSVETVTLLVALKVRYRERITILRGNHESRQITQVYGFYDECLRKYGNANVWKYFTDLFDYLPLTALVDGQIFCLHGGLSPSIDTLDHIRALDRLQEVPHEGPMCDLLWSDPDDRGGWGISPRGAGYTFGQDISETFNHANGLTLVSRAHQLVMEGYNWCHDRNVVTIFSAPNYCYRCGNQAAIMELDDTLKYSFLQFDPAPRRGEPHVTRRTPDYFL
UniProt P67775: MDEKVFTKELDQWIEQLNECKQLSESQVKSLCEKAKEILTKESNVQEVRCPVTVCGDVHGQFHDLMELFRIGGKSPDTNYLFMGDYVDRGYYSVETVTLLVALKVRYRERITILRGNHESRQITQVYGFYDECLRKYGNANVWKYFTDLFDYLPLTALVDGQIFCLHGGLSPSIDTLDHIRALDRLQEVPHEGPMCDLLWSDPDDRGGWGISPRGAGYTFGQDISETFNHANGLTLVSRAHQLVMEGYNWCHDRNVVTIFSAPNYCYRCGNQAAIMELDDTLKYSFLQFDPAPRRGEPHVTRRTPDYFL
UniProt Q01105: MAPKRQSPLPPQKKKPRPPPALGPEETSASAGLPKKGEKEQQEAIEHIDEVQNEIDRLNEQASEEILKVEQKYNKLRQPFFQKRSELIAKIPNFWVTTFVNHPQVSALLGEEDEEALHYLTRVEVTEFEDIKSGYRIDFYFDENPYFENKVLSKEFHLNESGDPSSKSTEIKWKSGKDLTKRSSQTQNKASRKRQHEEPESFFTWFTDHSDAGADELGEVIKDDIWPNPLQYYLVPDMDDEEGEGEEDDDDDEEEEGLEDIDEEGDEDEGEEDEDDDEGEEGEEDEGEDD
UniProt Q9EQU5: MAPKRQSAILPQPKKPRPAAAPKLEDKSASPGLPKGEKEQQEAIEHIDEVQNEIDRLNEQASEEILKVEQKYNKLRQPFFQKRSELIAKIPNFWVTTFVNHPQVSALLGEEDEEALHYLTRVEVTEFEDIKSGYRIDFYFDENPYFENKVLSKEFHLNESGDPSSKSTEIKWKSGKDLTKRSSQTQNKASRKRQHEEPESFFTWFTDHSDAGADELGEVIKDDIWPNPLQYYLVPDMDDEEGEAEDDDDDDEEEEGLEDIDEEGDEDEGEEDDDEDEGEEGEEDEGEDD
UniProt Q04206: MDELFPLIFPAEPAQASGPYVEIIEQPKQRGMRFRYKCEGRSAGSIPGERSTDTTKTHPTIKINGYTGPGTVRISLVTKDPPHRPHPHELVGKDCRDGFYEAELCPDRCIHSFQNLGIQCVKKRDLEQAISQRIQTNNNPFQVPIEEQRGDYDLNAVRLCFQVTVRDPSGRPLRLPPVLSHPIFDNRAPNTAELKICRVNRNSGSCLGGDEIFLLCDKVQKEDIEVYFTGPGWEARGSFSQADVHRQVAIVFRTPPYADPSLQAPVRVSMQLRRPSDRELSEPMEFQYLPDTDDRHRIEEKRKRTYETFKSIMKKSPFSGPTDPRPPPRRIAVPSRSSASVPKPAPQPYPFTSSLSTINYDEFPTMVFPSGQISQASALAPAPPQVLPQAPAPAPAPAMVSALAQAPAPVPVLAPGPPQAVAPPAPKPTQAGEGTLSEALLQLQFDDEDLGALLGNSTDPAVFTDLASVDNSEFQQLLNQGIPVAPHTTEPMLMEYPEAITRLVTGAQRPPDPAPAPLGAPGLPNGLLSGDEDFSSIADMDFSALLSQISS
UniProt Q04207: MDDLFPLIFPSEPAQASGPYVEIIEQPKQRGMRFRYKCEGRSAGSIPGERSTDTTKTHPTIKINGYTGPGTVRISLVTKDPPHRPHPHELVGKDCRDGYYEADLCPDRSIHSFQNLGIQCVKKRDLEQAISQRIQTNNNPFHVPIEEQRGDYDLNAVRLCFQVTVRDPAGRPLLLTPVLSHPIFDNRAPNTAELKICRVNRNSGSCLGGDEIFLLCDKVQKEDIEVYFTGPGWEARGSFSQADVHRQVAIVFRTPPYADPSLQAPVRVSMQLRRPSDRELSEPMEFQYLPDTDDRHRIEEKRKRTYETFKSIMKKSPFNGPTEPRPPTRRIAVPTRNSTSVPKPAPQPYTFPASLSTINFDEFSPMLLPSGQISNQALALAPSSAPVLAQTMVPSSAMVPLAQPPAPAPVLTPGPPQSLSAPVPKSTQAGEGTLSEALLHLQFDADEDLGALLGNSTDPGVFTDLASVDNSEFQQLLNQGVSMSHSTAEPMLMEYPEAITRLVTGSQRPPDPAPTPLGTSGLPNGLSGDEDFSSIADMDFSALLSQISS

Substance	binding [1]	binding [2]	binding [3]	other results
I2PP2A (mouse, H22 tumors) (from UniProt Q9EQU5 1-289)	binds			
I2PP2A, also known as SET (from UniProt Q01105 1-290)		binds	binds	
NF-κB p65 subunit (from UniProt Q04206 1-551)		binds	binds	
NF-κB p65 subunit (mouse, H22 cells) (from UniProt Q04207 1-549)	binds			binding [4]: binds
Recombinant human PP2A-C protein (from UniProt P67775) (enzyme)				binding [5]: binds
